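A cell-based FRET test of anthrax lethal toxin entry, tracked through the 460 nm emission signal; the cell line is not named here.
Each compound was tested as a concentration series from about 0.0005 to 40 µM.
The number is the fitted AC50 of the 460 nm signal alone; lower values mean a more potent effect. A falling signal goes with compounds filed as inhibitors or cytotoxic, a rising one with activators or fluorescent compounds (inferred from the filed classes).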

Values are in µM.
Common to all entries: measured here: 460 nm channel.
This is a side read-out of the assay, for part of the compounds, not drawn at random.
A potency from a partial, single-point or poor curve is only a rough figure.
The first word of each remark tells which way the curve ran; it can be opposite to the aim of the assay.

| # | structure | AC50 (µM) | curve |
|---|---|---|---|
| 1 | `COC(=O)c1[nH]c2c(c1C)C(=O)CC(c1cc(OC)ccc1OC)C2` (centres undefined) | 0.3162 | falling, full curve |
| 2 | `CCC1CCCCN1Cc1nc2c(c(=O)n(C)c(=O)n2C)n1CCC(C)C` (centres undefined) | 3.162 | falling, full curve |
| 3 | `CCN1CCN(c2ncc3c(n2)CC(c2ccc(OC)c(OC)c2)CC3=O)CC1` (centres undefined) | 25.12 | rising, single point |
| 4 | `CCCN1CCN(CCCNC(=O)Cn2nc(-c3ccc(Cl)cc3)ccc2=O)CC1` | 25.12 | falling, single point |
| 5 | `Cc1ccc(Br)cc1S(=O)(=O)N1CCN(c2ccccc2)CC1` | 15.85 | falling, partial curve |
| 6 | `COc1ccc(C2C(C#N)=C(N)Oc3n[nH]c(-c4ccccn4)c32)c(OC)c1OC` (centres undefined) | 3.981 | rising, partial curve |
| 7 | `CCN(CC)c1ccc(/C=N/NC(=O)c2ccc(O)cc2)cc1` | 10 | rising, single point |
| 8 | `CN(C(=O)Cc1ccc(Cl)c(Cl)c1)[C@@H](CN1CCCC1)c1cccc(OCC(=O)O)c1` | 12.59 | falling, single point |
| 9 | `COc1ccc(/C(CC2(O)C(=O)Nc3ccccc32)=N\O)cc1` (centres undefined) | 0.003981 | falling, full curve, poor fit |
| 10 | `COc1ccc(C2=CC(c3c(C)nn(-c4ccccc4)c3Cl)n3nnnc3N2)cc1OC` (centres undefined) | 15.85 | rising, partial curve |
| 11 | `CCCCOC(=O)Nc1ccc(N2CCCCC2)cc1` | 12.59 | falling, single point |
| 12 | `COC(=O)c1ccccc1NC(=O)CSc1nnnn1C1CCCCC1` | 3.981 | falling, partial curve |
| 13 | `O=c1c2ccccc2nc(SCc2nnc(-c3ccccc3Br)o2)n1Cc1ccco1` | 25.12 | falling, single point |
| 14 | `CS(=O)(=O)N(Cc1ccco1)CC(O)Cn1c2ccccc2c2ccccc21` (centres undefined) | 12.59 | falling, partial curve |
| 15 | `C=CCN1C(=O)CSc2ccc(C(=O)OCC)cc21` | 0.07943 | falling, full curve, poor fit |
| 16 | `C[C@@H](C(=O)OC1C[C@H]2CC[C@@H](C1)N2C)c1ccc(Br)cc1` (some centres undefined) | 31.62 | falling, single point |
| 17 | `CN1C(=O)N(C)C(=O)C2(Cc3c(nc4ccccn4c3=O)N3CCC(Cc4ccccc4)CC32)C1=O` (centres undefined) | 3.981 | rising, single point |
| 18 | `O=C(OC1CCCCC1)c1ccc(NC(=O)c2ccco2)cc1` | 12.59 | falling, partial curve |
| 19 | `Cc1cc(C(=O)Nc2ccc3c(c2)OCCO3)c(C)o1` | 0.003981 | falling, full curve, poor fit |
| 20 | `O=C(CN1CCOCC1)Nc1cccc(C(=O)Nc2cccc(C(F)(F)F)c2)c1` | 10 | falling, partial curve, poor fit |
| 21 | `Cc1cc(C)nc(SCc2csc(N)n2)n1` | 0.02512 | falling, full curve, poor fit |
| 22 | `Cc1ccc2nc(NC3=NCN(CCc4ccccc4)CN3)nc(C)c2c1` | 12.59 | rising, partial curve |
| 23 | `Cc1oc(-c2cccc(Cl)c2)nc1CN1CCCC(C(=O)NC(C)c2ccc3c(c2)OCCO3)C1` (centres undefined) | 31.62 | falling, single point |
| 24 | `CCOC(=O)c1nnn(-c2nonc2N)c1CSc1ccccn1` | 3.981 | falling, partial curve |
| 25 | `CCCCCCn1ccc(=N)cc1` | 10 | rising, partial curve |
| 26 | `Cc1ccc(C)c(-n2nnnc2Sc2nnnn2-c2ccccc2)c1` | 12.59 | falling, single point |
| 27 | `Cn1c(C(=O)NCCCN2CCN(c3ccccc3F)CC2)cc2c(=O)n(C)c3ccccc3c21` | 3.162 | falling, full curve |
| 28 | `CCOC(=O)C1=C(C)N=c2s/c(=C\c3cccn3C)c(=O)n2C1c1cccc(OC)c1OC` (centres undefined) | 31.62 | falling, single point |
| 29 | `CCC(C)(c1ccc(C(=O)OC)s1)c1ccc(C(=O)OC)s1` | 12.59 | falling, single point |
| 30 | `CCN(CC)S(=O)(=O)c1ccc(C(=O)OC2CCCCC2CN(C)C)cc1` (centres undefined) | 0.5012 | rising, full curve, poor fit |
| 31 | `CCCCCC[C@@H]([C@@H](C)O)n1cnc2c(N)ncnc21` | 12.59 | falling, single point |
| 32 | `CC[C@]1(c2ncc[nH]2)Cc2ccccc2O1` | 12.59 | falling, single point |
| 33 | `Cc1ccc(CSc2nnc(-c3ccco3)n2N)cc1` | 0.01259 | falling, full curve, poor fit |
| 34 | `Cc1ccc(C2CC(=O)N3CN(c4ccc(Br)cc4)CSC3=C2C#N)o1` (centres undefined) | 0.007943 | falling, full curve |
| 35 | `CC(C)n1c(SCC(N)=O)nc2c1c(=O)[nH]c(=O)n2C` | 5.012 | rising, single point |
| 36 | `O=C(CCCOc1ccc(Cl)cc1)N1CCCCCC1` | 25.12 | rising, single point |
| 37 | `CC(C)Cn1c(=O)c(C(=O)Nc2ccccc2S(N)(=O)=O)c(O)c2ccccc21` | 10 | falling, partial curve |
| 38 | `Nc1nc2ccc(N3CCOCC3)cc2s1` | 0.3162 | falling, partial curve |
| 39 | `O=C(/C=N/O)NCc1ccncc1` | 3.162 | falling, full curve |

The last 3 entries again:

structure,AC50 (µM),curve
CC(C)Cn1c(=O)c(C(=O)Nc2ccccc2S(N)(=O)=O)c(O)c2ccccc21,10,"falling, partial curve"
Nc1nc2ccc(N3CCOCC3)cc2s1,0.3162,"falling, partial curve"
O=C(/C=N/O)NCc1ccncc1,3.162,"falling, full curve"

The results are deposited in PubChem (AID912; NCATS, 2007).